Data on four substances can be found in US4254107 (dated 1981).

A short description of this series: general procedure: hybrid (solid and solution phase) peptide synthesis; BOC-Phe-Met-OR; BOC-Tyr hydroxysuccinimide ester.

“BOC-Tyr-2-[R-(3-amino-2-oxo-1-azepine)acetic acid]-Phe-Met-NH2” returned a step yield (coupling step) of 55%.

With “BOC-Tyr-2-[R-(3-amino-2-oxo-1-pyrrolidine)acetic acid]-Phe-Met-NH2”, the step yield (coupling step) is recorded as 81%.

The substance “H-Tyr-2-[R-(2-oxo-1-azepine)acetic acid]-Phe-Met-NH2” had a step yield (late stage modification step) of 58%.

On to “H-Tyr-2-[R-(3-amino-2-oxo-1-pyrrolidine)acetic acid]-Phe-Met-NH2 hydrochloride”, for which the step yield (late stage modification step, hydrochloride) worked out at 82%.
